Source: US20160053007A1
Results are given in words; binding and its absence hold for the method and conditions named. Some entries that bind do so weakly or less than the wild type.

Biological target: T1, recombinant human TL1A (human) (UniProt O95150)
T1 sequence (looked up): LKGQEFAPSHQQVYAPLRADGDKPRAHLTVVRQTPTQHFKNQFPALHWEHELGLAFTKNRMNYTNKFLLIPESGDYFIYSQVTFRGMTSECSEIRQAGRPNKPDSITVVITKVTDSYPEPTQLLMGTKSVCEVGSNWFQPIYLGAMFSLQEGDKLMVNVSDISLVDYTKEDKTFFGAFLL
Experiment: bead-based sandwich assay, 1A9 on beads as capture antibody

binding: binds
B1: anti-human TL1A monoclonal antibody, hybridoma clone 1A9 (antibody, IgG2a, V domains shown)
VH: QIQLVQSGPELKKPGETVKISCKASGYTFTTYGMSWVKQAPGKGLKWMGWMNTYSGVTTYADDFKGRFAFSLETSASTAYMQIDNLKNEDTATYFCAREGYVFDDYYATDYWGQGTSVTVSS
VL: DVLMTQTPLSLPVSLGDQASISCRSSQNIVHSDGNTYLEWYLQKPGQSPKLLIYKVSNRFSGVPDRFSGSGSGTDFTLKISRVEAEDLGIYYCFQGSHVPLTFGAGTKLELK
